Data: publication PMC10725499
No constants are given. Whether binding was seen depends on the method and setting. In cells and extracts the contact can be indirect. Some results given as binding are weak or reduced against the parent protein; the word gives no strength.

Protein sequences, listed by entry. Tags and fused reporters are not part of them.
UniProt Q9NYV4: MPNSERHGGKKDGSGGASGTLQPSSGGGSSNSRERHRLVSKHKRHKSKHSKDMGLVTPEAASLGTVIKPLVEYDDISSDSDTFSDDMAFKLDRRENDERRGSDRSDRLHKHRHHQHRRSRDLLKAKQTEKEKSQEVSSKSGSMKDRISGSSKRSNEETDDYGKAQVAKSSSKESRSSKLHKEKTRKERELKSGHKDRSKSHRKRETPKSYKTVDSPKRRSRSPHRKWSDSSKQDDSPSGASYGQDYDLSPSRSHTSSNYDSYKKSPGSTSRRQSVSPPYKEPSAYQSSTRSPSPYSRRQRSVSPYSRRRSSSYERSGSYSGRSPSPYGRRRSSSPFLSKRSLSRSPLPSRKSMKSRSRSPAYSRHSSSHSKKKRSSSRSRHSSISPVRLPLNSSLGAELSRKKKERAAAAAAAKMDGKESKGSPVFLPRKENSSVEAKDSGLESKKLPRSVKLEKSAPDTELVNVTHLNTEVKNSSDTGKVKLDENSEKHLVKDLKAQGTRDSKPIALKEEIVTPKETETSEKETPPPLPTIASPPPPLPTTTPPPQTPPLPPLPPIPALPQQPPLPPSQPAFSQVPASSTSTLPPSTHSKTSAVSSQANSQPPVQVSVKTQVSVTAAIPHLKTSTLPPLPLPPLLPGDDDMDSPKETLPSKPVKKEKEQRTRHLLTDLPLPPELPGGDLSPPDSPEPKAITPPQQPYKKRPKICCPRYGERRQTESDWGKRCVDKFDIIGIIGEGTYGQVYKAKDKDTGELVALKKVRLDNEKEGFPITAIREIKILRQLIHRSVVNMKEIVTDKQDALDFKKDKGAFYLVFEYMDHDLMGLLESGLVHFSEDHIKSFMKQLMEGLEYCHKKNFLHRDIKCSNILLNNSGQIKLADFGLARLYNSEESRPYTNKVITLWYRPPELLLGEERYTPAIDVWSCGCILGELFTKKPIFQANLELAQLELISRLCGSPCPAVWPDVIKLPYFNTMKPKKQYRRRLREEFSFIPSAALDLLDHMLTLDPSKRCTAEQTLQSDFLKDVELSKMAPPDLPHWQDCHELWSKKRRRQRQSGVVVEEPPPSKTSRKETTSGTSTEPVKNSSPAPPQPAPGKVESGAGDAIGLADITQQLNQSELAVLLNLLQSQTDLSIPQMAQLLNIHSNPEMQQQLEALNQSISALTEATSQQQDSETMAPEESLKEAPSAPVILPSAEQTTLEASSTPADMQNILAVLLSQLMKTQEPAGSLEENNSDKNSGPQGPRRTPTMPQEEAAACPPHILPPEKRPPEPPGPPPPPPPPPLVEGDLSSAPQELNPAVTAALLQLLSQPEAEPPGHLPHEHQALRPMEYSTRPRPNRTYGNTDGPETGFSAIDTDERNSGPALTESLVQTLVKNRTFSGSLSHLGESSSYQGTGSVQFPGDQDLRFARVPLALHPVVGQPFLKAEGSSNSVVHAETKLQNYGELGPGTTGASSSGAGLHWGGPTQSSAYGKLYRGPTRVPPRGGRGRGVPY
UniProt Q16531: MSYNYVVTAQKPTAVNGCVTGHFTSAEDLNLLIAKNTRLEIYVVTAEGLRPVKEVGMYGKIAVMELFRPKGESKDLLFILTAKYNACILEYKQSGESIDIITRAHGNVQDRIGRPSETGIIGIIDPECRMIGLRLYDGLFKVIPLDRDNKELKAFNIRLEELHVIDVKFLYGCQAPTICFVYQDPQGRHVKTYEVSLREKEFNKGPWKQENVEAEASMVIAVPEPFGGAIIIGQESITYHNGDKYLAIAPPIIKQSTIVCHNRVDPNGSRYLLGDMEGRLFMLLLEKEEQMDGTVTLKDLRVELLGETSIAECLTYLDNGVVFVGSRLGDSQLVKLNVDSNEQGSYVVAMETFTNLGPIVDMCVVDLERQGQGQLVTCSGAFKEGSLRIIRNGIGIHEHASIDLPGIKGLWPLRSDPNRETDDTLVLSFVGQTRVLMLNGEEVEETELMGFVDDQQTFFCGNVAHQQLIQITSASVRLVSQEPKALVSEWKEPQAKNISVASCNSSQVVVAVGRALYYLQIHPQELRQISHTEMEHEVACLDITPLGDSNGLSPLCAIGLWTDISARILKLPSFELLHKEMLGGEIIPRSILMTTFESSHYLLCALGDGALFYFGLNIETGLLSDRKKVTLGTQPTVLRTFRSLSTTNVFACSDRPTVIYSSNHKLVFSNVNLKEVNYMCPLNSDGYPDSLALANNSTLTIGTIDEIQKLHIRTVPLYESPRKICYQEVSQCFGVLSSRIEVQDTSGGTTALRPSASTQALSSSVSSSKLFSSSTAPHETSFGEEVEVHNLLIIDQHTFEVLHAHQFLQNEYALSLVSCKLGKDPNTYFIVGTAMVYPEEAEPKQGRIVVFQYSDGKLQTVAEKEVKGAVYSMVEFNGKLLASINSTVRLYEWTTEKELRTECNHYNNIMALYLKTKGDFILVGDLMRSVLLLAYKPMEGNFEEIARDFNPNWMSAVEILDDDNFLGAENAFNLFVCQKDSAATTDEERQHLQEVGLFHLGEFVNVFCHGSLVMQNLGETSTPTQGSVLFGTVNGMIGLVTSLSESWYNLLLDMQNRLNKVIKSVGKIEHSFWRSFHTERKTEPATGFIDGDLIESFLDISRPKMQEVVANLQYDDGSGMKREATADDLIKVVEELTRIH

Target: 6Myc-tagged CDK12 (human) (UniProt Q9NYV4)
Assay: co-IP; HEK293 cells co-transfected with Myc-CDK12, HA-cyclin K and Flag-DDB1; untreated or treated for indicated times with SR-4835 (1 µM) or THZ531 (1 µM); lysed in BLB buffer; Myc-CDK12 immunoprecipitated (antibody 2 h, protein A-Sepharose CL-4B 1 h), washed three times in lysis buffer …

- binding: binds
Substance: Flag-tagged DDB1 (from UniProt Q16531 1-1140)
